Results are given in words; binding and its absence hold for the method and conditions named. Binding seen in cells or lysates may run through a third protein. Some binding calls cover weakened binding; strength is not graded here.
Target: PCM1, endogenous in mouse germ cell lines (mouse (endogenous in GC1 and GC2)) (UniProt Q9R0L6)
Assay: co-IP; GC1 and GC2 cell lysates incubated with anti-PIBF1 antibody, anti-PCM1 antibody or rabbit IgG; endogenous USO1 detected in the precipitate

Protein sequences, listed by entry. Tags and fused reporters are not part of them.
UniProt Q9R0L6: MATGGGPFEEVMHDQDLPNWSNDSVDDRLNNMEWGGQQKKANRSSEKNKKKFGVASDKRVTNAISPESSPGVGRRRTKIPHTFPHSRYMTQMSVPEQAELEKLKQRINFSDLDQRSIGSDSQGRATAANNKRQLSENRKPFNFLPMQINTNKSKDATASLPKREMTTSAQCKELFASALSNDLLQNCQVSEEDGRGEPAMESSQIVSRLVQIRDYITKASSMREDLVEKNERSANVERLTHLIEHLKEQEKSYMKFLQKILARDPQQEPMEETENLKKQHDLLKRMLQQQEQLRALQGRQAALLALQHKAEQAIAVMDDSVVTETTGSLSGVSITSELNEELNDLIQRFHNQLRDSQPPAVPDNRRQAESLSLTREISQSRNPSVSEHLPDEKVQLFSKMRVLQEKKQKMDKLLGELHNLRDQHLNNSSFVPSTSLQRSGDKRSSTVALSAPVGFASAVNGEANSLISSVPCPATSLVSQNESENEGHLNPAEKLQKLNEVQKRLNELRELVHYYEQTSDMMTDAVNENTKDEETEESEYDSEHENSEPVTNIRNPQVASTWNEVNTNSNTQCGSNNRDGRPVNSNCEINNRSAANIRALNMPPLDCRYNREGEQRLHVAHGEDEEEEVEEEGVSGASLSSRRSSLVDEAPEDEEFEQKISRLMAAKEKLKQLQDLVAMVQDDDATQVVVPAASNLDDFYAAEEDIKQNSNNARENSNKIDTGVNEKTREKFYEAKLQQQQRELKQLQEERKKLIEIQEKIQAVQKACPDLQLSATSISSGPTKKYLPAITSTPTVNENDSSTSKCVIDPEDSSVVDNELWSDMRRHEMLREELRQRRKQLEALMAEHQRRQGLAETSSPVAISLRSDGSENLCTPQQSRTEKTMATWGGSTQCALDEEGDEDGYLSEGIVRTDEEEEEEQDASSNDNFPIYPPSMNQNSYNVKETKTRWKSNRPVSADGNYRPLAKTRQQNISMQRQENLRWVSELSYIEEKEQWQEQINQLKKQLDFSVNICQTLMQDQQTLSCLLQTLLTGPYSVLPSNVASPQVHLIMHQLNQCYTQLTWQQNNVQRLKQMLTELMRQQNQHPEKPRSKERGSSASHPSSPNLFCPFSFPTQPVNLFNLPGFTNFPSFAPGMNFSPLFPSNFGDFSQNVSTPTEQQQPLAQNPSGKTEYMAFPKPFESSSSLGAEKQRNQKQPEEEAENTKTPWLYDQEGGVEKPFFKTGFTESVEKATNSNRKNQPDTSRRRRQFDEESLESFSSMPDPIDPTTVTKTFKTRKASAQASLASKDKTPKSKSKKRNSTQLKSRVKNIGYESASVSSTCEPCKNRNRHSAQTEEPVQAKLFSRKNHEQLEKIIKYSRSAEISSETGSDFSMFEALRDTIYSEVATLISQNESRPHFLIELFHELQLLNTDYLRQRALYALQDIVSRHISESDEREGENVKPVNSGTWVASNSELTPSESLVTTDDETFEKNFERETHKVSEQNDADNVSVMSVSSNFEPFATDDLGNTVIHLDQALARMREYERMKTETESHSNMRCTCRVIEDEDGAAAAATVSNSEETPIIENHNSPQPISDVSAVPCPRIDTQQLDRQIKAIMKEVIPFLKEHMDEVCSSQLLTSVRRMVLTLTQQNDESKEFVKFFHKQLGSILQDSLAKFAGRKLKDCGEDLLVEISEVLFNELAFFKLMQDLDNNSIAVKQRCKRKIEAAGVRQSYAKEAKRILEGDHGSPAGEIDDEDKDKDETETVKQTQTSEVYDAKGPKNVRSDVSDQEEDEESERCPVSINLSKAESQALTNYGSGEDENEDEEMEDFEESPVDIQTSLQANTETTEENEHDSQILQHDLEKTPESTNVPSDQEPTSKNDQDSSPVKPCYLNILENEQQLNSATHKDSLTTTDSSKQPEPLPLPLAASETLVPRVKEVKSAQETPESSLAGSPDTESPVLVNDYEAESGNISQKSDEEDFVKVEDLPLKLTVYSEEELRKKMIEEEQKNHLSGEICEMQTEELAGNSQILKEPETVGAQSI

- binding: binds
B1: USO1 vesicle transport factor (USO1), endogenous in mouse germ cell lines (protein, UniProt Q9Z1Z0 1-959)
chain: MNFLRGVMGGQSAGPQHTEAETIQKLCDRVASSTLLDDRRNAVRALKSLSKKYRLEVGIQAMEHLIHVLQTDRSDSEIIAYALDTLYNIISNDEEEELEENSTRQSEDLGSQFTEIFIKQPENVTLLLSLLEEFDFHVRWPGVRLLTSLLKQLGPPVQQIILVSPMGVSRLMDLLADSREIIRNDGVLLLQALTRSNGAIQKIVAFENAFERLLDIITEEGNSDGGIVVEDCLILLQNLLKTNNSNQNFFKEGSYIQRMKPWFEVGEENSGWSAQKVTNLHLMLQLVRVLVSPTNPPGATSSCQKAMFQCGLLQQLCTILMATGIPADILTETINTVSEVIRGCQVNQDYFASVNAPSNPPRPAIVVLLMSMVNERQPFVLRCAVLYCFQCFLYKNEKGQGEIVATLLPSTIDATGNSVSAGQLLCGGLFSTDSLSNWCAAVALAHALQGNATQKEQLLRVQLATSIGNPPVSLLQQCTNILSQGSKIQTRVGLLMLLCTWLSNCPIAVTHFLHNSANVPFLTGQIAENLGEEEQLVQGLCALLLGISIYFNDNSLENYTKEKLKQLIEKRIGKENFIEKLGFISKHELYSRASQKPQPNFPSPEYMIFDHEFTKLVKELEGVITKAIYKSSEEDKKEEEVKKTLEQHDNIVTHYKNMIREQDLQLEELKQQVSTLKCQNEQLQTAVTQQASQIQQHKDQYNLLKVQLGKDNHHQGSHGDGAQVNGIQPEEISRLREEIEELKSQQALLQGQLAEKDSLIENLKSSQASGMSEQASATCPPRDPEQVAELKQELTALKSQLCSQSLEITRLQTENCELLQRAETLAKSVPVEGESEHVSAAKTTDVEGRLSALLQETKELKNEIKALSEERTAIQKQLDSSNSTIAILQTEKDKLDLEVTDSKKEQDDLLVLLADQDQKILSLKSKLKDLGHPVEEEDESGDQEDDDDEIDDGDKDQDI
